The list shows a part of the results. Shown are side measurements of this screen, not its main read-out; they come without a call. The list favours compounds with an active or inconclusive main result. Words in brackets tell the shape of the fitted curve; partial curves, single points and poor fits give uncertain potencies.
Experiment: IkB Signaling
Conditions: ABC-DLBCL IkBa-CBG/CBR dual luciferase ratio (green luciferase fused to IkBa over red control in OCI-Ly3 lymphoma cells), 4 h
In short: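 Curves were fitted separately to fusion (green), unfused (red) and ratio luminescence, then classed by r2, magnitude and activity. Cells: OCI-Ly3, 4 h compound plus doxycycline at 37C; 10 uM MG-132 defined full response.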

[1] = measured here: control luc red channel unless noted

With Clc1ccc(-n2ncc3c(NCCN4CCOCC4)ncnc32)cc1 the AC50 [1] was 20 µM [falling, partial curve].

In the case of COc1ccccc1-c1nc(-c2cccc(C)c2)no1, the AC50 [1] is reported as 12.6 µM [falling, partial curve].

For CS(=O)(=O)c1ccc2nc(NC(=O)C3COc4ccccc4O3)sc2c1 (stereo not given), the AC50 [1] was 39.8 µM [falling, single point].

For COc1ccc(N2CCN(C(=O)c3cnn(-c4ccc(OC)cc4)c3C3CCN(C(=O)OC(C)(C)C)CC3)CC2)cc1, the AC50 [1] was 31.6 µM [falling, single point].

In the case of CSc1cccc(NS(=O)(=O)c2ccc(F)cc2)c1, the AC50 [1] is reported as 31.6 µM [falling, single point].

In the case of COc1ccccc1N1CCN(c2nc(C)nc3c2oc2ccccc23)CC1, the AC50 [1] is reported as 12.6 µM [falling, partial curve].

In the case of O=C(CCN1CCc2ccccc2C1)c1ccc2c(c1)OCCO2, the AC50 [1] is reported as 3.16 µM [falling, full curve].

With Cc1ccc(CNC(=O)C2CCCN(c3ncnc4onc(-c5ccc(F)cc5)c34)C2)cc1 (stereo not given) the AC50 [1] was 39.8 µM [falling, single point].

For Cc1ccc(C2=CSC3=NCCN23)c(C)c1, the AC50 [1] was 20 µM [falling, partial curve].

For O=C(CN1C(=O)CCSc2ccccc21)Nc1ccc(C(F)(F)F)cc1, the AC50 [1] was 15.8 µM [falling, single point].

With Cc1ccc(Nc2cc(C)nn2-c2nc(C)cc(=O)[nH]2)cc1 the AC50 (measured here: IkB-luc green channel) was 0.158 µM [rising, full curve] and the AC50 (measured here: control luc red channel) was 0.631 µM [falling, full curve].

In the case of CCOc1ccc(NC(=O)CN2CCN(CC(=O)Nc3ccc(F)cc3F)CC2)cc1, the AC50 [1] is reported as 2 µM [falling, full curve].

For Cn1c(/C(C#N)=C/c2ccccc2Br)nc2ccccc21, the AC50 [1] was 31.6 µM [falling, single point].

For O=C(/C=C\Nc1ccccn1)c1ccc(Cl)cc1, the AC50 [1] was 0.794 µM [falling, full curve].

With CCc1cccc(NS(=O)(=O)c2ccc3c(c2)CC(C)N3C(=O)C2CC2)c1 (stereo not given) the AC50 [1] was 12.6 µM [falling, partial curve].

In the case of O=C(COC(=O)Cn1cnc2ccccc21)NCCC1=CCCCC1, the AC50 [1] is reported as 6.31 µM [falling, single point].

With COc1ccc(Cl)cc1NC(=O)CSc1nccn1-c1ccc(Cl)cc1 the AC50 [1] was 25.1 µM [falling, single point].

With Cc1ccc(C)c(N2CCN(C(=O)c3cc(C)nc4c3c(C)nn4-c3ccccc3)CC2)c1 the AC50 [1] was 10 µM [falling, partial curve, poor fit].

In the case of CCOc1ccc(OCC(=O)Nc2ccc(S(=O)(=O)Nc3cc(C)on3)cc2)cc1, the AC50 [1] is reported as 10 µM [falling, partial curve].

In the case of COc1cc(CN(C(=O)COc2ccc(F)cc2)c2ccccn2)cc(OC)c1OC, the AC50 [1] is reported as 20 µM [falling, single point].

For CCCc1cc(=O)n2[nH]c(NCc3c(F)cccc3Cl)nc2n1, the AC50 [1] was 1.58 µM [rising, partial curve].

In the case of COc1ccc(N2CCN(S(=O)(=O)c3ccc4c(c3)C(C(C)C)C(=O)N4)CC2)cc1 (stereo not given), the AC50 [1] is reported as 15.8 µM [falling, partial curve].

For Cc1nc2cc(-c3cccc(F)c3)nn2c(C)c1CCC(=O)NCCc1ccccc1, the AC50 [1] was 3.98 µM [falling, partial curve].

With Cn1c(=O)c2sccc2n2c(CCCC(=O)Nc3ccc(Oc4ccccc4)cc3)nnc12 the AC50 [1] was 20 µM [falling, partial curve].

For CCOC(=O)COc1ccc(-c2nnn(CC(=O)Nc3ccccc3)n2)cc1, the AC50 [1] was 12.6 µM [falling, partial curve].

For O=C1CSC(c2cn(-c3ccccc3)nc2-c2ccccc2)N1Cc1ccco1 (stereo not given), the AC50 [1] was 15.8 µM [falling, partial curve].

In the case of COc1ccc(-c2noc(CC(=O)N(C)c3cccc(C)c3)n2)cc1, the AC50 [1] is reported as 20 µM [falling, single point].

For CCOC(=O)c1cnc2ccc(Br)cc2c1NCCN1CCOCC1, the AC50 [1] was 25.1 µM [falling, partial curve].

With Cc1ccc(N2CC(NC(=O)c3ccccc3C(F)(F)F)CC2=O)cc1C (stereo not given) the AC50 [1] was 2.51 µM [rising, single point].

For COc1ccc(NC(=O)CSc2oc(-c3cccs3)nc2S(=O)(=O)c2ccccc2)c(OC)c1, the AC50 [1] was 7.94 µM [falling, full curve].

In the case of O=C(Nc1ccc(C(=O)OCc2cc(=O)n3nc(C4CC4)sc3n2)cc1)c1ccccc1, the AC50 [1] is reported as 25.1 µM [rising, partial curve].

In the case of OC1CCN(c2c3c(nc4cc(-c5cccc(F)c5)nn24)CCCC3)CC1, the AC50 [1] is reported as 31.6 µM [falling, partial curve].

With Fc1ccc2nc(N3CCCCC3)sc2c1 the AC50 [1] was 1 µM [rising, partial curve].

In the case of COc1cccc(CNC(=O)C2CCCN(S(=O)(=O)N(C)c3ccc(F)cc3)C2)c1OC (stereo not given), the AC50 [1] is reported as 20 µM [falling, partial curve].

With Cc1cccc(NC(=O)CSC2=Nc3ccccc3C3=NC(CC(=O)NCc4cccs4)C(=O)N23)c1 (stereo not given) the AC50 [1] was 15.8 µM [falling, partial curve, poor fit].

In the case of COc1ccc(CNC(=O)CCCn2nc(C)n3c(cc4sccc43)c2=O)cc1, the AC50 [1] is reported as 39.8 µM [falling, single point].

For O=C(COc1ccccc1)Nc1nnc(S(=O)(=O)Nc2ccccc2)s1, the AC50 [1] was 1 µM [rising, full curve].

With CCOc1ccccc1C1C(C(=O)Nc2ccccc2)=C(C)Nc2nc(SCC(=O)c3ccc(C)cc3)nn21 (stereo not given) the AC50 [1] was 20 µM [falling, partial curve, poor fit].

In the case of CCCCNC(=O)c1nnn(-c2ccccc2)c1N, the AC50 [1] is reported as 15.8 µM [falling, partial curve].

For CN(C(=O)CSc1nc(-c2ccccc2)no1)c1ccc(F)cc1, the AC50 [1] was 1.26 µM [falling, full curve].

In the case of COc1ccc(C(=O)c2sc3nc4c(c(C(F)(F)F)c3c2N)CN(C(C)=O)CC4)cc1OC, the AC50 [1] is reported as 1.26 µM [rising, partial curve].

In the case of Cc1onc(-c2ccccc2Cl)c1C(=O)OCn1nnc2ccccc2c1=O, the AC50 [1] is reported as 1 µM [falling, partial curve].

With CCOc1ccccc1NC(=O)Nc1nnc(N2CCCC(C)C2)s1 (stereo not given) the AC50 [1] was 10 µM [falling, partial curve].

With Cc1cccc2cc(CN(Cc3cccs3)Cc3nnnn3Cc3ccccc3)c(=O)[nH]c12 the AC50 [1] was 7.94 µM [falling, partial curve].

In the case of Cc1ccc(-c2nnc(Nc3cccc(Cl)c3)c3ccccc23)cc1S(=O)(=O)N1CCN(C)CC1, the AC50 [1] is reported as 10 µM [falling, partial curve].

For CCN(Cc1ccccc1)c1ncnc2c1cnn2-c1ccc(F)cc1, the AC50 [1] was 39.8 µM [falling, single point].

With COc1ccc(NC(=O)C2CCCN(c3ncnc4onc(C)c34)C2)cc1OC (stereo not given) the AC50 [1] was 0.2 µM [rising, full curve].

With Cc1ccc(Cn2c(SCc3ccc(C(=O)N4CCCCC4)cc3)nc3ccncc32)cc1 the AC50 [1] was 25.1 µM [falling, partial curve].

With CCC(=O)OC1=C(C(C)=O)N(Cc2ccccc2)S(=O)(=O)c2ccccc21 the AC50 [1] was 25.1 µM [falling, partial curve].

With COC(=O)C1=C(C)N(c2ccc(OC)c(OC)c2)C(=O)C1 the AC50 [1] was 39.8 µM [falling, single point].

In the case of COc1ccc(-c2cc(C(=O)N3CCCCC3C)no2)cc1OC (stereo not given), the AC50 [1] is reported as 3.98 µM [rising, single point].

In the case of COc1ccccc1CNC(=O)C(=O)NCC(c1ccco1)S(=O)(=O)c1ccc(C)cc1 (stereo not given), the AC50 [1] is reported as 20 µM [falling, single point].

With CCCCCn1c(CCCNC(=O)c2ccc(Cl)cc2)nc2ccccc21 the AC50 [1] was 25.1 µM [falling, partial curve].

In the case of COc1ccc(-c2nc(C(=O)Nc3cccc(C(C)=O)c3)nn2-c2ccccc2Cl)cc1, the AC50 [1] is reported as 10 µM [falling, partial curve].

In the case of CCOc1cc(-c2nc(-c3ccc(-c4ccccc4)nc3OCC)no2)cc(OCC)c1OCC, the AC50 [1] is reported as 39.8 µM [falling, single point].

With Cc1nnc2sc(-c3cccc(NC(=O)c4ccc(-c5cccc(Cl)c5)o4)c3)nn12 the AC50 [1] was 7.94 µM [falling, full curve, poor fit].

For O=C(NCc1ccccc1Cl)c1ccccc1NC(=O)c1nsc2ccccc12, the AC50 [1] was 25.1 µM [falling, partial curve].

In the case of COCCCNC(=O)c1cc2c(-c3cccc(OC)c3)nn(C)c2s1, the AC50 [1] is reported as 5.01 µM [falling, partial curve].

In the case of O=C(CSc1nccn1Cc1ccc(Cl)cc1)Nc1nc2ccccc2s1, the AC50 [1] is reported as 31.6 µM [falling, partial curve, poor fit].

For COc1ccccc1-c1cn(S(=O)(=O)c2ccc(F)cc2)nc1N, the AC50 [1] was 3.98 µM [falling, full curve].

With CCc1ccc(NC(=O)c2cc(S(=O)(=O)N3CCCC(C)C3)cn2C)cc1 (stereo not given) the AC50 [1] was 12.6 µM [falling, partial curve].

With CCOc1ccc(CNC(=O)C2CCN(C(=O)c3ccc(-n4ccc5ccccc54)s3)CC2)cc1 the AC50 [1] was 25.1 µM [falling, single point].

In the case of Cc1cccc(NC(=O)Cn2c(=O)n(CCCCCC(=O)NCc3ccccc3)c(=O)c3sccc32)c1, the AC50 [1] is reported as 10 µM [falling, partial curve].

With Cc1ccc(C)c(N2CCN(S(=O)(=O)c3c(C(=O)N4CCC(C)CC4)c(C)n(C)c3C)CC2)c1 the AC50 [1] was 39.8 µM [falling, single point].

— PubChem BioAssay AID445 (National Center for Advancing Translational Sciences (NCATS), 2006)
